# From PubChem BioAssay AID445 (National Center for Advancing Translational Sciences (NCATS), 2006)
# The list shows a part of the results. The main result of the screen is listed elsewhere. These columns were measured beside it and carry no call. The list favours compounds with an active or inconclusive main result. The note in brackets gives the kind of curve behind each potency; many fits are weak.
# Test: IkB Signaling
# Details: ABC-DLBCL IkBa-CBG/CBR dual luciferase ratio (green luciferase fused to IkBa over red control in OCI-Ly3 lymphoma cells), 4 h
# How it was run: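 In this assay, an IκBα–CBG68 fusion accumulates when IKK-driven degradation is blocked; native CBR normalizes for cell number. OCI-Ly3 cells were treated 4 h with compound and doxycycline, then green and red light read after Chroma-Glo addition.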
# [1] = measured here: control luc red channel unless noted
smiles,measurement,setting,value
CCOc1ccccc1NS(=O)(=O)c1ccc2[nH]c3c(c2c1)CCCCC3,AC50,[1],"6.31 µM [falling, full curve]"
COc1ccc(S(=O)(=O)N(CC(=O)Nc2cc(C)ccc2OC)Cc2ccccc2)cc1,AC50,[1],"10 µM [falling, partial curve]"
COc1cc2c(cc1NC(=O)CSc1nnc(Cc3cccs3)n1C)oc1ccccc12,AC50,[1],"20 µM [falling, partial curve] [measured here: IkB-luc green channel]"
CCOc1cc(-c2c(C#N)c(N)nc3c2CCCC3C)ccc1O (stereo unspecified),AC50,[1],"31.6 µM [falling, single point]"
CCCN(CCC)CCCNC(=O)C1CCN(c2nc3ccc(CC)cc3s2)CC1,AC50,[1],"0.126 µM [falling, full curve, poor fit]"
COC(=O)CSc1nc2c(c(-c3ccc(C)o3)c1C#N)CCCC2,AC50,[1],"7.94 µM [falling, partial curve]"
CCOc1cc(C2c3c(oc4cc(C)cc(C)c4c3=O)C(=O)N2CCO)ccc1O (stereo unspecified),AC50,[1],"0.0316 µM [rising, full curve]"
N#C/C(=C\c1cccc(F)c1)c1nc(-c2cc3c(ccc4ccccc43)oc2=O)cs1,AC50,[1],"7.94 µM [falling, partial curve, poor fit]"
COC(=O)c1sccc1S(=O)(=O)N1CCN(c2ccc(C)cc2C)CC1,AC50,[1],"10 µM [falling, partial curve]"
COc1cccc(NC(=O)CSc2ncc3c(n2)-c2ccc(Cl)cc2N(C)S3(=O)=O)c1,AC50,measured here: IkB-luc green channel,"39.8 µM [rising, single point]"
same,AC50,measured here: control luc red channel,"31.6 µM [rising, partial curve]"
CC(C)(C)c1ccc(C(=O)NC2(C(F)(F)F)NC(=O)N(CCc3ccccc3)C2=O)cc1 (stereo unspecified),AC50,[1],"25.1 µM [falling, partial curve]"
CCOc1ccc(CNC(=O)c2ccccc2NC(=O)c2nsc3ccccc23)cc1,AC50,[1],"0.316 µM [rising, partial curve]"
CCc1ccc(NC(=O)c2cc(C(C)C)on2)cc1,AC50,[1],"5.01 µM [falling, partial curve]"
COc1ccc2nc(NC(=O)c3cccc(OCc4c(C)noc4C)c3)sc2c1,AC50,[1],"7.94 µM [falling, partial curve]"
CC(=O)Nc1cccc(Nc2nc3ccccc3n3c(C)nnc23)c1,AC50,[1],"3.16 µM [falling, full curve]"
O=C(CN1CCCN(Cc2ccc(F)cc2)S1(=O)=O)Nc1ccc2c(c1)OCCO2,AC50,[1],"39.8 µM [falling, partial curve, poor fit]"
CCCN(CCC)CCCNC(=O)Cn1ncc2c3ccccc3n(Cc3ccccc3F)c2c1=O,AC50,[1],"12.6 µM [falling, partial curve]"
CCc1nn(CCCC(=O)NCc2ccc(C)cc2)c(=O)c2cc3occc3n12,AC50,[1],"1.58 µM [falling, full curve, poor fit]"
CCOc1ccccc1N(C)C(=O)Cn1nc(Cc2ccncc2)c2ccccc2c1=O,AC50,[1],"0.0501 µM [rising, full curve, poor fit]"
CC(C)(C)c1ccc(Oc2nc3ccccn3c(=O)c2/C=C(\C#N)c2nc3ccccc3s2)cc1,AC50,[1],"7.94 µM [falling, single point]"
COc1ccc2c(c1)CCc1sc(NC(=O)c3ccc(Br)cc3)nc1-2,AC50,[1],"20 µM [falling, partial curve, poor fit]"
CN(C)c1oc(-c2ccc(COc3ccccc3)o2)nc1C#N,AC50,[1],"0.316 µM [rising, full curve]"
COc1cc(NC(=O)Cn2ccn(-c3cc(C)cc(C)c3)c(=O)c2=O)cc(OC)c1,AC50,[1],"20 µM [falling, single point]"
CCSc1nnc(NC(=O)c2ccco2)s1,AC50,[1],"12.6 µM [falling, partial curve]"
Cc1ccc(NC(=O)C(=O)NCC(c2ccc3c(c2)OCO3)N2CCN(C)CC2)c(C)c1 (stereo unspecified),AC50,[1],"31.6 µM [falling, single point]"
CN(C)c1ccc(-c2nc(-c3cccs3)c(-c3cccs3)[nH]2)cc1,AC50,[1],"25.1 µM [falling, partial curve]"
CCCn1c(SCC(O)c2ccccc2)nc2ccccc21 (stereo unspecified),AC50,[1],"39.8 µM [falling, single point]"
CCC(=O)n1nc(NCc2ccc(OC)c(OC)c2)nc1NCc1ccc(OC)c(OC)c1,AC50,[1],"10 µM [falling, partial curve]"
Cc1ccc(-c2noc(-c3ccccc3NC(=O)C3CC(=O)N(c4ccc(C)cc4)C3)n2)cc1 (stereo unspecified),AC50,[1],"12.6 µM [falling, partial curve]"
COc1cc2nc(Nc3cccc(C)c3)nc(N)c2cc1OC,AC50,[1],"25.1 µM [falling, partial curve, poor fit]"

# Looked up one by one from the entries so far, 2 records:
smiles,measurement,setting,value
CC(=O)Nc1cccc(Nc2nc3ccccc3n3c(C)nnc23)c1,AC50,[1],"3.16 µM [falling, full curve]"
CCOc1ccccc1NS(=O)(=O)c1ccc2[nH]c3c(c2c1)CCCCC3,AC50,[1],"6.31 µM [falling, full curve]"
